# Data published in the supplement of paper PMC10849652.
# Amino acid sequences for entries named in this document (tags omitted). A change or cut given only in a name is not applied to a line headed by its entry.
# UniProt Q96A00: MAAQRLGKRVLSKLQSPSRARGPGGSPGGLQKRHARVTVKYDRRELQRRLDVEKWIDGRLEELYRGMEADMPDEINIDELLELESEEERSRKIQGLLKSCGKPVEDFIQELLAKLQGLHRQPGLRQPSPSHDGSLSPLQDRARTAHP
# UniProt P14314: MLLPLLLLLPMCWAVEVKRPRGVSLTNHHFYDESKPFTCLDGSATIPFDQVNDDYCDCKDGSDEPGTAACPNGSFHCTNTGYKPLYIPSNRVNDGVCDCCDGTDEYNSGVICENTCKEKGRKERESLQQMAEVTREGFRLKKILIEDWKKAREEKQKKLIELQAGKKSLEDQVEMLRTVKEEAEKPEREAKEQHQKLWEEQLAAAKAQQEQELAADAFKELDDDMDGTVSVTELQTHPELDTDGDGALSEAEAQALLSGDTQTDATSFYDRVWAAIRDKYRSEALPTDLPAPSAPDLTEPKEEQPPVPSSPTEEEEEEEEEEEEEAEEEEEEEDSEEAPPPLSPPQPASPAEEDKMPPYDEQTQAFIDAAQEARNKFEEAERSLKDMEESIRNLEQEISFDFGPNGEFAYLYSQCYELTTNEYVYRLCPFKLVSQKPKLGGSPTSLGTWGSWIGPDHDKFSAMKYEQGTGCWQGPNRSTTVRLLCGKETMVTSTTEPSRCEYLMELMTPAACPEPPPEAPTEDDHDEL
# UniProt Q8WWY3: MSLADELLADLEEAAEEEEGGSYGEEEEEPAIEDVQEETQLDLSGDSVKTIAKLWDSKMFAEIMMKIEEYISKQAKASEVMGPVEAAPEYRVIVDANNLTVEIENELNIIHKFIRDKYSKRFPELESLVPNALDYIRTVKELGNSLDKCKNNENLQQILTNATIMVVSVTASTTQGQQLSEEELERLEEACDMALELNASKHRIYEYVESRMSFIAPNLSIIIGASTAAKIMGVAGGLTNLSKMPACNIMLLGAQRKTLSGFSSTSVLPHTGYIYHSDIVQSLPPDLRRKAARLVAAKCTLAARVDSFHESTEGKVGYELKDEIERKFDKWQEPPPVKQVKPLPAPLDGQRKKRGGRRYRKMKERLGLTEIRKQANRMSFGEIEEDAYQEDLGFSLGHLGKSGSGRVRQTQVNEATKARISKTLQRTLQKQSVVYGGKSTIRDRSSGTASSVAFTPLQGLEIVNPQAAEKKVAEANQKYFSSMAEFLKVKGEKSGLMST
# UniProt Q5MIZ7: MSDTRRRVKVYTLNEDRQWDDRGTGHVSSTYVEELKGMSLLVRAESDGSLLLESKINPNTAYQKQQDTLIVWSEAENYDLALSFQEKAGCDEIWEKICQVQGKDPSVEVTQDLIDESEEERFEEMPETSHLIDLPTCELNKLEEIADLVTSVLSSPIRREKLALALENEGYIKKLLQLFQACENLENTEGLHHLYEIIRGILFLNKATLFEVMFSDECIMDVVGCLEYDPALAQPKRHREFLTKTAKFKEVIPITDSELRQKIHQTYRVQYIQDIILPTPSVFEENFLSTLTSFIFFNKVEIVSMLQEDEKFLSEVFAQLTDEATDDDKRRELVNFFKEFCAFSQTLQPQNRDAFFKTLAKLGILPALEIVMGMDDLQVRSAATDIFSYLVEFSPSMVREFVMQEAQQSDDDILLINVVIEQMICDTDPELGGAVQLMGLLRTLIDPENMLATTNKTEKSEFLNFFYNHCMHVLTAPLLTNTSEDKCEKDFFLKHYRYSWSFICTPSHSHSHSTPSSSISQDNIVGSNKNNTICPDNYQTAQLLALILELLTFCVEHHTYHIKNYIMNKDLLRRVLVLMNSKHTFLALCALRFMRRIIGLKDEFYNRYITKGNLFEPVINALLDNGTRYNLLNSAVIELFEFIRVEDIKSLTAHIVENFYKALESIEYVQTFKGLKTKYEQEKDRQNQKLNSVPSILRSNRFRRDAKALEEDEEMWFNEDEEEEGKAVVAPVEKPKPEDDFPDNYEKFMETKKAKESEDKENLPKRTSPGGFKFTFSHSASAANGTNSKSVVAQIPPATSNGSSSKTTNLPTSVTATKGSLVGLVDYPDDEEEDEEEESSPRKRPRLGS
# UniProt Q13362, whole entry, looked up: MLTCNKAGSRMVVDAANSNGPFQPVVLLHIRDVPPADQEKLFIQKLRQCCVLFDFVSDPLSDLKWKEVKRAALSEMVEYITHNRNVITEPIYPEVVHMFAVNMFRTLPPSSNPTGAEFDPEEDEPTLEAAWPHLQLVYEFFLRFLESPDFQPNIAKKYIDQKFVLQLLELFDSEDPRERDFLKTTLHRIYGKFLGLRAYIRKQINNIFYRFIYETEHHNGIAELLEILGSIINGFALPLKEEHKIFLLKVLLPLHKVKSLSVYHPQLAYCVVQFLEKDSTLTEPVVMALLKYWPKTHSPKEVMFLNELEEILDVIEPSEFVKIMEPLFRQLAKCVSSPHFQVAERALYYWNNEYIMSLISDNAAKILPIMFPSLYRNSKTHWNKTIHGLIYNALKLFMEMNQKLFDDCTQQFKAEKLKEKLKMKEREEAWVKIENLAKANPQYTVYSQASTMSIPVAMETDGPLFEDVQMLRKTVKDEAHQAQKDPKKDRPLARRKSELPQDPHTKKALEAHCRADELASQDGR
# UniProt Q969Q6: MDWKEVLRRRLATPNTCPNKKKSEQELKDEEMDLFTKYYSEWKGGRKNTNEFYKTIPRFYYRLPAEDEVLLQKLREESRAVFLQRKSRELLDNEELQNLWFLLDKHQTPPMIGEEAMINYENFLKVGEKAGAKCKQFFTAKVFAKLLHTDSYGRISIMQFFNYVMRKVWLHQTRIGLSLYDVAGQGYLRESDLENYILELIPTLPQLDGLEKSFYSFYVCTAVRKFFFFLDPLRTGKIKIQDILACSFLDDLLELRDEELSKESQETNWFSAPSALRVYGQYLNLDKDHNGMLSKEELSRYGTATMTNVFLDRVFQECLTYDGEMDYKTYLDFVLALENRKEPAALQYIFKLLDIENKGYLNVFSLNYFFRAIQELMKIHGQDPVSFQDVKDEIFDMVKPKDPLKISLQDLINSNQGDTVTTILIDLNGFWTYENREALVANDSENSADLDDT
# UniProt P49642: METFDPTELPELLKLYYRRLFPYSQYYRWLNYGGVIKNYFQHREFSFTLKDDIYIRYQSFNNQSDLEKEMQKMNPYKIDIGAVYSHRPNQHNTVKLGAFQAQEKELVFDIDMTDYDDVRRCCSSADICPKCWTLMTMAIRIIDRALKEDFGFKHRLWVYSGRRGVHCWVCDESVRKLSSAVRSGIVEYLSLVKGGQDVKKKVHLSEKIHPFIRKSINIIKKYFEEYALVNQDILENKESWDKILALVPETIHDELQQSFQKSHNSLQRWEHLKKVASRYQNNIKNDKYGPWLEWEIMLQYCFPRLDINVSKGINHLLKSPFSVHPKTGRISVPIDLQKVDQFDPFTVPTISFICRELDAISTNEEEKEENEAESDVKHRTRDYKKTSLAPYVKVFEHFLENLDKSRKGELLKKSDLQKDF
# UniProt O75400: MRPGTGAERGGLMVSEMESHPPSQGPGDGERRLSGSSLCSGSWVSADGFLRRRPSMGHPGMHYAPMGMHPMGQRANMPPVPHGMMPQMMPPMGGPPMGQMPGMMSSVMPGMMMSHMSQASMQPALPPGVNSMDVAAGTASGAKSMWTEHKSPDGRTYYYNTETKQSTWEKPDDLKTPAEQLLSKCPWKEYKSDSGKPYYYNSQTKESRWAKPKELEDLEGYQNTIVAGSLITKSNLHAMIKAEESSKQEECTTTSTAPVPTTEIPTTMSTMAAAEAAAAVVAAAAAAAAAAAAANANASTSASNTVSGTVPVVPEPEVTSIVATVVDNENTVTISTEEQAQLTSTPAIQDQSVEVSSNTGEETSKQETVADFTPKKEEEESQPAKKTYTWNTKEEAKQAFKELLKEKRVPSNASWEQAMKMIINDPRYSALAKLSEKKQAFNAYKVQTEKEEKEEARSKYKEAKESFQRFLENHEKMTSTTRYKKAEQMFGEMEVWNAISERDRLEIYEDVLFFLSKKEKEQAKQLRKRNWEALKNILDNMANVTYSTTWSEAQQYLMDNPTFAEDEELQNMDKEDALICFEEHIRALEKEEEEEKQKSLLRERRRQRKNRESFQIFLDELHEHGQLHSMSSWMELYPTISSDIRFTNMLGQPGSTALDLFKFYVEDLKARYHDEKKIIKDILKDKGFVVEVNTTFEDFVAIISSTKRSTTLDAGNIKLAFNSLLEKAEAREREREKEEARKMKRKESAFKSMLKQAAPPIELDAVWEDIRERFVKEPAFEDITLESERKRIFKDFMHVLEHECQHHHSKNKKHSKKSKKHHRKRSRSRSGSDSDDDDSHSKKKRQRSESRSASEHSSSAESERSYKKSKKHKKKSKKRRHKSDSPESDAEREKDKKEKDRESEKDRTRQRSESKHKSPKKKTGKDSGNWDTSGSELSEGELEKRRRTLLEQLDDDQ
# UniProt O94806: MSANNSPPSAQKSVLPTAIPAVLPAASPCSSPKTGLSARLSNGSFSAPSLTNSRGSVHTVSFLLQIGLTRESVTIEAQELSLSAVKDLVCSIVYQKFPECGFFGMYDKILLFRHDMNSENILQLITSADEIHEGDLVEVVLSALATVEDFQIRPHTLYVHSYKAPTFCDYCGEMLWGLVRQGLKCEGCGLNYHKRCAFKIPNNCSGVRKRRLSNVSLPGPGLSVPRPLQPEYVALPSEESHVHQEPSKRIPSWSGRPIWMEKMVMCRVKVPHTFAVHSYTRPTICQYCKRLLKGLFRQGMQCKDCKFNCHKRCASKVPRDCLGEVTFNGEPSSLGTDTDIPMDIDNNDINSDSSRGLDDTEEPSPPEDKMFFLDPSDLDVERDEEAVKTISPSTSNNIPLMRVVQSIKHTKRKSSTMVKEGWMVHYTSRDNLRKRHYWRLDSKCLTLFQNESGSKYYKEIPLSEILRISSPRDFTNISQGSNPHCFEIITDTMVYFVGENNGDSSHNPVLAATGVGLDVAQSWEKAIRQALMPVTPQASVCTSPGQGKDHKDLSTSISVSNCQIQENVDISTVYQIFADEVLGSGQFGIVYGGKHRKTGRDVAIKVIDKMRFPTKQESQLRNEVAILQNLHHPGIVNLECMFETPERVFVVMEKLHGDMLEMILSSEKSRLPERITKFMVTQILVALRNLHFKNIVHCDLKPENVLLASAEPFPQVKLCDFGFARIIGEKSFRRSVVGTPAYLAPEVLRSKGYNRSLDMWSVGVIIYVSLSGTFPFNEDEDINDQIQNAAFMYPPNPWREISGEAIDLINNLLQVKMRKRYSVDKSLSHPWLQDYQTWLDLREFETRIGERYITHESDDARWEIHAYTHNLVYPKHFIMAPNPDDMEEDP
# UniProt Q569H4: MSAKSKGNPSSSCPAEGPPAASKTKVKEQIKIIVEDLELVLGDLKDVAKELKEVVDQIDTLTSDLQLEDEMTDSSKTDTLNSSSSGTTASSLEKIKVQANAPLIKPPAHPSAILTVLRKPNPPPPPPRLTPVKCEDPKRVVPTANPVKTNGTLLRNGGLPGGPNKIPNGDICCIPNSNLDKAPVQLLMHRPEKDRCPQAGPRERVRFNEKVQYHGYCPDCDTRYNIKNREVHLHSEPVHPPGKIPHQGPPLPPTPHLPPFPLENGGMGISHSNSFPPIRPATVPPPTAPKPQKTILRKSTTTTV
# UniProt P07478, whole entry, looked up: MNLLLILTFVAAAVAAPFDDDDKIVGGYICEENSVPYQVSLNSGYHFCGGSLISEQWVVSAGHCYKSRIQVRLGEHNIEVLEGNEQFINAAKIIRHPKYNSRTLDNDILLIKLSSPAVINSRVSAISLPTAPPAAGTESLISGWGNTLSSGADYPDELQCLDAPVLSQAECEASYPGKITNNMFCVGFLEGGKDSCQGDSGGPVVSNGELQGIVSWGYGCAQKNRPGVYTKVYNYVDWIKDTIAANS
# The other results are listed elsewhere or left out.
# Experiments:
# Test in all cases: log2 fold change, soluble protein after heating vs DMSO (PISA); higher = thermal stabilisation; K562 cells, 10 uM, 30 min; active = over 0.2 and 3.5 SD of the protein, either way, in both replicates (recomputed)
# [1] = compound: CC[C@@H]1C(=O)N(C)c2cnc(Nc3ccc(C(=O)NC4CCN(C)CC4)cc3OC)nc2N1C1CCCC1
# Method in brief: (§1)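 Soluble protein was defined as the supernatant after 21,000xg for 90 min. It came from K562 cells at 2×10^6 cells/mL given 10 μM compound for 30 min, heated in aliquots for 3 min across 48°C-58°C, pooled, and extracted in PBS with 0.5% NP-40 at 4°C, and was quantified by TMTpro 16plex LC-MS/MS with equalised channel sums. Thermal stability against control samples, from duplicates, is reported as log2 fold change.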
# [2] = compound: CC[C@@H]1C(=O)N(C)c2cnc(Nc3ccc(C(=O)N[C@H]4CC[C@H](N5CCN(CC6CC6)CC5)CC4)cc3OC)nc2N1C(C)C [volasertib]
# Method in brief: as §1
# [3] = compound: CC[C@H](C)N1C=C(C2=C(C=C(C=C21)C3=CN=C(C=C3)N4CCNCC4)C(=O)NCC5=C(C=C(NC5=O)C)C)C
# Method in brief: as §1
# [4] = compound: CC[C@H](C)[C@@H](C(=O)N[C@@H]([C@@H](C)O)C(=O)N[C@@H](CC(C)C)C(=O)[C@]1(CO1)C)NC(=O)[C@H]([C@@H](C)CC)N(C)C(=O)C [epoxomicin]
# Method in brief: as §1
# [5] = compound: CCn1cc(-c2ccnc3[nH]c(-c4cccc(CN(C)C)c4)cc23)c(-c2ccc(NC(=O)N(C)C)cc2)n1
# Method in brief: as §1
# [6] = compound: CN(C)CC(=O)Nc1ccc2[nH]c(=O)c3ccccc3c2c1
# Method in brief: as §1
# [7] = compound: CN1C2=C(C3=C1C(=O)N(N=C3)CC4=CC(=CC=C4)N)SC(=C2)S(=O)C
# Method in brief: as §1
# [8] = compound: CN1CCC(CNc2ccc3ncc(-c4cccc(OC(F)(F)F)c4)n3n2)CC1
# Method in brief: as §1
# [9] = compound: CN1CCN(CCOc2cc(OC3CCOCC3)c3c(Nc4c(Cl)ccc5c4OCO5)ncnc3c2)CC1 [saracatinib]
# Method in brief: as §1
# [10] = compound: CN1CCN(c2nc(C3=C(c4c[nH]c5ccccc45)C(=O)NC3=O)c3ccccc3n2)CC1 [sotrastaurin]
# Method in brief: as §1
# [11] = compound: CN1CCc2c(c3ccccc3n2Cc2ccc(C(=O)NO)cc2)C1 [Tubastatin A]
# Method in brief: as §1
# [12] = compound: CNC(=O)C1=CC=CC=C1NC2=NC(=NC=C2Cl)NC3=C(C=C(C=C3)N4CCOCC4)OC
# Method in brief: as §1
# [13] = compound: CNC(=O)c1ccc(Nc2ncc(C(F)(F)F)c(NCc3nccnc3N(C)S(C)(=O)=O)n2)cc1 [defactinib]
# Method in brief: as §1
# [14] = compound: CNCc1ccc(-c2[nH]c3cc(F)cc4c3c2CCNC4=O)cc1 [rucaparib]
# Method in brief: as §1
# [15] = compound: CNc1nc(-c2ccc3c(N)n[nH]c3c2)cc(N2C[C@@H](C(=O)NC3CCCCC3)CC[C@H]2C)n1
# Method in brief: as §1
# [16] = compound: COC(=O)N[C@@H](C)CNc1nccc(-c2cn(C(C)C)nc2-c2cc(Cl)cc(NS(C)(=O)=O)c2F)n1 [encorafenib]
# Method in brief: as §1
# [17] = compound: COC(=O)[C@H](CCSC)NC(=O)C1=C(C=C(C=C1)NC[C@H](CS)N)C2=CC=CC=C2
# Method in brief: as §1
# [18] = compound: CCn1c(C(=O)N(C2CC2)C2CC2)cc2c3c(ncn3C)c(Nc3cc(C)n(C)n3)nc21
# Method in brief: as §1
# [19] = compound: CN(CCOC1=CC=C(C=C1)C[C@H]2C(=O)NC(=O)S2)C3=CC=CC=N3 (racemic) [rosiglitazone]
# Method in brief: as §1
# [20] = compound: CN1CC[C@H](c2c(O)cc(O)c3c(=O)cc(-c4ccccc4Cl)oc23)[C@H](O)C1 [alvocidib]
# Method in brief: as §1
Target,log2 fold change [1],log2 fold change [2],log2 fold change [3],log2 fold change [4],log2 fold change [5],log2 fold change [6],log2 fold change [7],log2 fold change [8],log2 fold change [9],log2 fold change [10],log2 fold change [11],log2 fold change [12],log2 fold change [13],log2 fold change [14],log2 fold change [15],log2 fold change [16],log2 fold change [17],log2 fold change [18],log2 fold change [19],log2 fold change [20]
PPP1R14A (UniProt Q96A00),inactive: 0.002,inactive: 0.051,inactive: 0,inactive: 0.058,inactive: -0.067,inactive: -0.04,inactive: -0.027,inactive: -0.091,inactive: -0.048,inactive: -0.027,inactive: 0,inactive: -0.021,inactive: -0.012,inactive: -0.023,inactive: -0.015,inactive: -0.025,inactive: -0.004,,,
PRKCSH isoform 2 (UniProt P14314),inactive: -0.06,,inactive: -0.052,inactive: 0.006,inactive: -0.075,inactive: -0.017,inactive: 0.027,inactive: 0.052,inactive: -0.069,,inactive: 0.013,inactive: -0.007,inactive: -0.089,inactive: 0.023,inactive: -0.008,inactive: -0.08,inactive: 0.038,inactive: 0.01,inactive: -0.009,inactive: 0.001
PRPF31 (UniProt Q8WWY3),inactive: -0.113,active: -0.548,inactive: 0.172,inactive: 0.049,inactive: -0.079,inactive: 0.181,inactive: -0.041,inactive: -0.348,inactive: -0.093,inactive: -0.15,inactive: 0.144,inactive: -0.033,active: -0.456,inactive: -0.068,inactive: 0.033,inactive: 0.011,inactive: -0.037,,,
PPP4R3B (UniProt Q5MIZ7),inactive: -0.052,active: -0.284,inactive: 0.05,inactive: -0.011,inactive: -0.074,inactive: -0.001,inactive: -0.074,inactive: -0.15,inactive: -0.008,inactive: -0.05,inactive: 0.022,inactive: 0.057,inactive: -0.023,inactive: -0.065,inactive: -0.033,inactive: 0.014,inactive: 0.003,,,
PPP2R5C isoform 4 (UniProt Q13362),inactive: -0.069,inactive: -0.127,inactive: 0.042,inactive: 0.19,inactive: -0.099,inactive: -0.048,inactive: -0.003,inactive: -0.11,inactive: -0.04,inactive: 0.009,inactive: 0.012,inactive: -0.068,inactive: -0.083,inactive: -0.003,inactive: -0.032,inactive: 0.06,inactive: -0.025,,,
PPP2R3C (UniProt Q969Q6),inactive: 0.21,,,,,,,,,,inactive: -0.05,,,inactive: -0.049,,inactive: -0.142,,,,
PRIM1 (UniProt P49642),inactive: -0.097,inactive: -0.249,inactive: 0.093,inactive: 0.088,inactive: -0.018,inactive: 0.117,inactive: 0.052,inactive: -0.12,inactive: -0.109,inactive: -0.111,inactive: 0.042,inactive: 0.116,inactive: -0.107,inactive: 0.084,inactive: 0.051,inactive: 0.153,inactive: -0.082,,,
PRPF40A (UniProt O75400),inactive: -0.036,inactive: -0.216,inactive: 0.089,inactive: 0.022,inactive: 0.065,inactive: 0.036,inactive: 0.074,inactive: -0.04,inactive: -0.026,inactive: -0.099,inactive: 0.103,inactive: -0.197,inactive: -0.219,inactive: 0.029,inactive: -0.03,inactive: 0.026,inactive: -0.024,,,
PRKCG (UniProt P05129),inactive: -0.253,inactive: -0.062,inactive: 0.058,inactive: 0.086,inactive: -0.117,inactive: 0.058,inactive: 0.093,inactive: -0.176,inactive: 0.011,inactive: -0.373,inactive: -0.025,inactive: 0.088,inactive: -0.015,inactive: -0.021,inactive: -0.164,inactive: 0.19,inactive: -0.02,,,
PRKD3 (UniProt O94806),,,,,inactive: -0.125,inactive: 0.059,inactive: -0.002,inactive: -0.418,inactive: 0.023,inactive: -0.31,,inactive: -0.335,inactive: -0.068,,inactive: 0.002,,inactive: -0.058,,,
PRR16 (UniProt Q569H4),,,,,inactive: -0.14,,,inactive: -0.023,,,,inactive: 0.062,,,,,,inactive: 0,,
PRSS2 (UniProt P07478),,inactive: 0.004,inactive: 0.025,inactive: 0.079,,inactive: -0.171,inactive: 0.031,,inactive: 0.062,inactive: 0.135,inactive: -0.237,inactive: -0.244,inactive: 0.057,,inactive: -0.044,,inactive: 0.15,inactive: 0.113,inactive: 0.062,inactive: 0.133
